Patent US20170193176A1, “System, Method, and Software for Improved Drug Efficacy and Safety in a Patient” (Insilico Medicine, Inc., priority 2015, published 2017)
For at least one compound, name, drawing or mass did not settle the structure.

System: renal cancer patients
Test: Clinical outcome of renal cancer patients treated with targeted drugs (nibs)
Format: in vivo, human
Protocol: A set of samples taken from the tumors of renal cancer patients who were treated at Clinical Hospital of the Hertzen Cancer Institute in Moscow. These samples were examined using the Illumina HT-12 platform at Medical Center of Lethbridge University in Canada. As a reference normal renal tissue, the dataset GSE49972 (Karlsson et al., 2014) obtained on the same platform, was used. […] The overview of renal cancer transcriptomes selected for the V-dataset, is shown below in Table 3.
As an example, we list here the details of case history for one of the patient, who has been a responder to Sunitinib treatment.
Person; the clear cell cancer in left kidney; disease progression stage T3N0M1, distant metastases to lungs and skeleton. Surgery has not been performed due to the overall progression of the disease. Before the chemotherapy for distant metastases, the patient received the symptomatic radiation therapy of 30 Gy on the pelvic and femoral zone. Two months after the patient received the neo-adjuvant Sunitinib therapy in overall dose of 50 mg.
As long as two years after the treatment, the patient was still alive and continued to receive the adjuvant Sunitinib therapy.

CCN(CC)CCNC(=O)c1c(C)[nH]c(/C=C2\C(=O)Nc3ccc(F)cc32)c1C [Sunitinib]
result of drug therapy (metastases in lungs, pelvic bones, primary tumor area) (one patient, clear cell cancer in left kidney T3N0M1, neo-adjuvant therapy, overall dose 50 mg): positive changes have been recorded | survival after the treatment (same patient, two years after the treatment, continuing adjuvant therapy): still alive
